Key:
in vitro = settings: human, Papp, apical to basal
Description: (§1) The seeding medium and culture medium of hiSIECs for LLI and ALI were obtained from FUJIFILM Corporation. hiSIECs were cultured according to the manufacturer’s instructions. Briefly, Fluid3D-X® devices were coated with Corning Matrigel GFR Basement Membrane Matrix (Corning) on the day before seeding the cells. hiSIECs were seeded onto a Fluid3D-X® device at 5.3 × 10^5 cells/MPS and incubated for 5.5 h. The seeding medium was added to the device, and cell culture was started in flow for 11 days at 20 pps 1/4 (3.8 µL/min). After one day, the seeding medium was replaced with LLI culture medium, and the medium was changed every two or three days. ALI culture was performed using the same method as the LLI culture, but the apical channel medium was removed to expose the cells to air on day 4. On day 11 after seeding, the gut MPS was used for the assay.
(§2) Eight gut chips were divided into two groups: with and without inhibitors. […] Because all steps were performed under static conditions, 200 µL of buffer was transferred from the outlet to the inlet by a micropipette before collection of each sample. Serial sampling (150 µL) was performed at following time points (0, 30, 60, 90, and 120 min) from both the donor and acceptor sides. Equal volumes of fresh buffer were added after the sample collection. At the end of the experiment (120 min), the cell lysates were collected. The concentrations of drugs and/or metabolites in the transport buffer and cells were measured by LC-MS/MS. […]
(§3) The apparent permeability coefficient (Papp, cm/s) was calculated using Eq. (1):1 [drawing 1] […]
(§4) The intestinal availability (Fg) of CYP3A substrates was calculated based on a previous report[35] using the following equation:3 [drawing 3] […]
(§5) The specimens were deproteinated with 3-times volumes of acetonitrile and centrifuged to obtain supernatants. For quantification of the drug concentration on the donor side, the specimens were further diluted 20 times with acetonitrile. […]

[1] = system: hiSIECs monolayers in gut MPS/Fluid3D-X; assay: in vitro; settings: ketoconazole 10 µM, PSC833 5 µM, Ko143 5 µM
Description: as §1, §2, §3, §4, §5

[2] = system: hiSIECs monolayers in gut MPS/Emulate; assay: Permeability / donor concentration of test drugs using gut MPS/Emulate (fluidic conditions)

Compound: CC(C)NCC(O)COc1ccc(CC(N)=O)cc1 (stereo not shown) [Atenolol]
- Papp at 120 min (in vitro; inhibitor (+)): 0.865 ± 0.173 ×10⁻⁶ cm/s
- Papp at 120 min (in vitro; inhibitor (-)): 1.31 ± 0.19 ×10⁻⁶ cm/s
- effect of inhibitor cocktail on apical-to-basal transport [1]: sensitive to the inhibitors
- effect of inhibitor cocktail on apical-to-basal transport [2]: inhibitor-sensitive

— publication PMC11612460, “Development of a novel gut microphysiological system that facilitates assessment of drug absorption kinetics in gut” (Scientific Reports, 2024)
